We go through 107 sequences from PubChem BioAssay AID1508600 (Functional Genomics Laboratory (NCATS/FGL), 2020).

In all, about 53,000 sequences went through this assay and about 3,700 (7%) were called active.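 Rule for the calls: active = gene knockdowns whose robust z-score for IL-1 alpha signal is at least 2 or at most -2, so actives lie on both sides; inactive = the rest.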 Some of the results follow.

A short description of this assay: Components of the Cytosolic LPS Sensing Pathway: Gene Identification via Genome-wide siRNA Screen.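 Note: robust z of the log signal after scaling to non-targeting control siRNA wells of the plate.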 The settings on record: RAW264.7 macrophages, IL-1a HTRF, actives lie on both sides, screened at 100 nM (by protocol), cells primed 5 h with Pam3CSK4 first. An outline of the steps: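 Using IL-1a HTRF as read-out, the screen measured release from RAW264.7 cells after 48h siRNA knockdown (100 nM), 5 h Pam3CSK4 priming and 24 h cytosolic LipidA. Values were expressed relative to negative-control wells as robust z-scores.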
A general note: In TR-FRET formats the signal depends on donor and acceptor labels being close together.
With GGAUCUGAUAAACUCAUUCTT against Lad1, the z-score was inactive: -1.22.

Consider GGCAUAGCUCAGUGAUAGCTT against Tmem19, for which the z-score is inactive: 0.117. On to GGAUGUUGUAGAUGCUUUGTT against Acot1, for which the z-score was inactive: 0.682. In the case of CGAAUAAACUUGAUUUGCCTT against Ier3, the z-score is inactive: 0.238. The value for GGAACGAGUUUUGAAAAAATT against Creb3l3 was inactive: 0.073.

Regarding GGGAAAUUUCUCACUCUCUTT against Olfr1362, the z-score was inactive: -0.224. The value for UACUACAACCGCACAGUGATT against Tmc6 was inactive: 0.522; that for GGAAUCCAUGUUAGUAGCCTT against Lrsam1 was inactive: 0.312. The value for GGUGGUCUACAUAGCUUGUTT against Kdelr1 was inactive: 1; that for GGGCUUCUGUGCAUUGCAUTT against Asb3 was inactive: -0.0101. Next, GCGAUAUAAUAUGGAAAGATT against Plcg2: inactive: 1.07; GCAAGUGAAGAAACAGCACTT against Stx1b: inactive: -0.581. For the sequence CGUAGCAAUCUUGGUUGCUTT against Hoxa3, the z-score was inactive: -1.86. Next, GGUGGUUAUGAAACUAUCUTT against Kdm5c: inactive: -0.637. On to GGUCCUACUUGUUCAUUGATT against Il1rl1, for which the z-score is inactive: -0.802.

On to GCCUGAUUUUACUUAAAAGTT against H2aj, for which the z-score was inactive: -1.26. Regarding GGCUGUCACGGAAAUGUAGTT against Rrp7a, the z-score was inactive: -0.315. As to GGAGUGAAGGUUCAGAUCCTT against Asic2, the z-score is active: 3.1.

Consider GCGAUUCUCCGUGAUGUACTT against Mettl7a1, for which the z-score is inactive: -1.82. The value for GGACAUCCGACACUUUAACTT against Abcb9 was inactive: 0.373; that for GGACUUUGAGGAGAAGAAGTT against Maml1 was inactive: 0.957; that for GGAGAAAAAGCAACUUCAATT against Epsti1 was inactive: 0.569.

For GGAAAACCAGGUGAACCUCTT against Gch1, the z-score is inactive: -0.505. Next, GGUAAAUUCAACUGGAAGGTT against Lyar: inactive: 0.194.

Consider CCCGUAGGUAAUACAAAUATT against Foxd4, for which the z-score was inactive: 0.721. The value for “CGAGCUUAUGCUGAAACCATT against 3830417A13Rik” was active: -2.45; that for GGACUGAGAAUCUUCUGUATT against Kctd4 was inactive: -0.297; that for GGAAAACCGGAACAACCAGTT against Kpna2 was inactive: 0.957. Consider GGGUACAAAGCAACAUUGGTT against Disp1, for which the z-score was active: 4.2.

For GGUACAGAACAGGAUGGUATT against Zbtb33, the z-score is inactive: -0.466. The value for GGUGUUCUAAUUCUGAGGCTT against Tcstv1 was inactive: -1.48.

Regarding GGAAAAGAAAUUUGCUGAUTT against Ugt3a2, the z-score is inactive: -0.821. Next, GCAGCCUUUGUACCAUUAUTT against Samt2: inactive: -1.45; GGAGGUACUUACAAUUUUGTT against Kpna3: inactive: 0.193; CGUACAUCUGUCCUACAUGTT against Tmem216: inactive: -0.259. In the case of GGAUAGCAAUUACCUGCUATT against Strap, the z-score was inactive: -0.276. As for GGAAGAAUCUUUCUGAUGGTT against Pon3, the z-score is inactive: -1.7. Next, GCUUAGUGGUGUCAUCUCCTT against Stx1a: inactive: 1.4; GCUUUUUUAUGCAUUCCAATT against Rock1: inactive: 0.575; GCCUUCAGGAAAAUCACUATT against Olfr849: inactive: -1.14. Consider GGACAAGGUUGUGUCUGUGTT against Olfr1508, for which the z-score is inactive: -1.48.

In the case of GGGAAUCAGAGGCUGGUAATT against Rrnad1, the z-score was inactive: 1.78. Turning to GAGCUUUGUGCUGAACCUGTT against Lgals1, the z-score is inactive: -1.98. Consider GGAAAUAAUGUUACUGACATT against Zfp445, for which the z-score is inactive: -0.178. Next, CGAAACUUACCAGGAGUCGTT against Ttyh2: active: -2.31. Next, GGUUUGUUGUUGUUUUUGGTT against Vezt: inactive: 0.44; GGGAUUCCUUCAGCUUACCTT against Gng12: inactive: -0.744; GCUUCAUCGAACAAGUCGCTT against Pcbd1: inactive: 0.715. Next, GGGAGAAUCGAUCCUUCACTT against Dmac2: inactive: -0.12. Take GGCAGAAAGCAGAGCUUCUTT against Igfbp3: the z-score was inactive: -1.36.

With CGUACUGGGCCUAUGUUGATT against Nrarp, the z-score was inactive: 0.975. Next, CCUUCUGGCCCAGACGAUUTT against Pxmp2: inactive: -1.39. Next, GCUAUUAUUGCAAUGUCAGTT against Trim38: inactive: -0.113. Regarding GGACAGUGAGGUGAACUUCTT against Enc1, the z-score was inactive: -0.268. The value for GGAAAAAAGUCCUUGAGUCTT against Plscr3 was inactive: -1.51; that for GCCACGGAAAACAGCGAGATT against Gpr65 was inactive: -0.778; that for GGCCAUUUGCAUGAUUAUUTT against Tas2r108 was inactive: -0.598. The value for UGUCGACUGUCAAGAACUATT against Lyzl6 was inactive: -1.33; that for GGGUUUUCGGGAGAUCUGUTT against Ltbp4 was inactive: -0.44.

For GGCCUGAAGGGCAUUUACATT against Slc25a11, the z-score was inactive: 1.48. The value for GGCGAAGUAUCUGAUGAGGTT against Plch2 was inactive: -0.405; that for GCUCAGAUGACAAUUUGCCTT against Gbx2 was inactive: -0.64; that for GCCAAUACGGGUGAACAAGTT against Sf3b4 was inactive: 0.335. GGGCAUUUCUUCAGCUAAUTT against Tfec: the z-score was inactive: -1.04. The value for GGUAUCCACUGUGCCAACCTT against Ush2a was inactive: -0.343; that for CGAGUUUUAUGAAUAAGCUTT against Otud6b was inactive: -0.855; that for GGUCCUGGACUUCAUGCUATT against Galnt6 was active: 2.75. GGAGACCUCAGCUGAUAUUTT against Tmem109: the z-score is inactive: 0.51.

With CGCAGAAGCUAAUAAACAGTT against Psmb6, the z-score is inactive: -0.391.

For GGAUUAGAGGUUAUGGUAATT against Skint11, the z-score is inactive: -0.686. The value for GGUGUGGAUGAGCAAGUACTT against Eif3k was inactive: 1.23; that for CCUUUACUGUCACAAGCCGTT against Rgl2 was inactive: 0.979. The value for GGCACUUGCUAUCAGCAAGTT against Cdc6 was inactive: -0.999; that for GGCAUUCUUUCUUCAAUACTT against Ibsp was inactive: 0.261; that for GGAGAAACAAAAAAGGUGUTT against Srd5a3 was inactive: -0.0317. The value for GGAUGGCUUUAAUAGUACUTT against Zfp106 was inactive: -0.222; that for GCAAGCACUGAACUUUGUCTT against Fam122a was inactive: -1.76. As to GCCAGUUCUAGGGUAAUGGTT against Cnr2, the z-score is inactive: -1.22. In the case of GCGAGACCGUUCAAUAAAGTT against Sergef, the z-score is inactive: 0.73.

Regarding GCUAGAAGUCAACAAAUACTT against Timp3, the z-score is inactive: 0.801.

Turning to GGACUACUCCUGGUAGUGATT against Slc46a2, the z-score was inactive: -0.326. Next, GGAGAAGGAGGUGAUAAUGTT against Sart1: inactive: 1.19. Take CCUCUACAUCAGAGUAUGATT against Defb21: the z-score is active: 2.22. The value for UUUCGAUCCUUUGAUUGAGTT against Olfr482 was inactive: 0.0231; that for CGUCAAUGCUCACUUAAUUTT against Zfp612 was inactive: 0.523.

GGAUCUUCGGACCUAUCUGTT against Bin1: the z-score was inactive: -0.319. The value for CCAUCAUUGGUGAAUCCCUTT against Gnai1 was inactive: -1.64.

Consider GCUCAGUUCUCUGUCUUGUTT against Olfr107, for which the z-score is inactive: 1.21. The value for GGGCUUUGAUGUCAUGAAGTT against Drg2 was inactive: -0.668. Next, GGAAGAAGGAACAUGAUCUTT against Mrpl52: inactive: -0.928.

As for CCAUGUCAGUUACAAUGCGTT against Gja6, the z-score is inactive: 1.54. For GGCUCUGAUAUUGAUACUATT against Cse1l, the z-score was inactive: -0.181. For GCCCGUGGUCUAAAUCUAUTT against Igtp, the z-score was inactive: -0.17.

As to GGAUGUGACUCUUGACCUGTT against Depdc5, the z-score is inactive: 0.231. For CCUCUUAAUGAAGGAAAGCTT against Npy, the z-score was inactive: 0.376. Next, GCUUGGAUAUACAGAUUAATT against Skint10: inactive: 0.851; GGAGAAAGACAUCAGAAAGTT against Rdh16f2: inactive: 0.942; GCAAAAGACCAUCUGAGUGTT against Adig: inactive: 0.375. For the sequence GGCAUCCACACAGAACAAGTT against Zfp467, the z-score was inactive: -0.287. The value for GGCCUUCACCAAAAGCAUCTT against Ncf2 was inactive: -0.661. Next, GGUUCAGCUGACGUAAAAATT against BC048562: active: -2.1; GGCCCAGUUUCUGAGGAUCTT against B4galt2: inactive: -0.921; AUGCAAGAGGAACGUAUCATT against Olfr1181: inactive: -0.572. The value for GCAUUCGGCUGAGAAGAUGTT against Foxb2 was inactive: -1.74; that for “GGUCACCUUGUGAAGGCAGTT against A430005L14Rik” was inactive: 0.171; that for GCAACAUUAUUUCAUCGACTT against Kctd15 was inactive: 0.0368.

For GGAGACAUGGUGAAGAUUUTT against Vav3, the z-score was inactive: -0.451.
